± gives the uncertainty stated by the source. Many of these values have a large error.
Assay: self-splicing fitness, log relative to wild type (ln ratio); higher = more splicing; Tetrahymena group I intron in knt gene, E. coli kanamycin selection, DiMSum; sequences stand for … in CUCUCU…GGAGGGAAAAGUUAUCAGGCAUGCACCUGGUAGCUAGUCUUUAAACCAAUAGAUUGCAUCGGUUUAAAAGGCAAGACCGUCAAAUUGCGGGAAAGGGGUCAACAGCCGUUCAGUACCAAGUCUCAGGGGAAACUUUGAGAUGGCCUUGCAAAGGGUAUGGUAAUAAGCUGACGGACAUGGUCCUAACCACGCAGCCAAGUCCUAAGUCAACAGAUCUUCUGUUGAUAUGGAUGCAGUUCACAGACUAAAUGUCGGUCGGGGAAGAUGUAUUCUUCUCAUAAGAUAUAGUCGGACCUCUCCUUAAUGGGAGCUAGCGGAUGAAGUGAUGCAACACUGGAGCCGCUGGGAACUAAUUUGUAUGCGAAAGUAUAUUGAUUAGUUUUGGAGUACUCGUGGUCG
Outline: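 Six replicate transformations of E. coli BL21(DE3) with a pET-22b(+) library were grown overnight at 37°C or 30°C. The library randomised all eight P1ex-region intron nucleotides, the intron lying in the knt kanamycin-resistance gene, and plates were LB agar with or without 25 μg/mL kanamycin plus 100 μg/mL carbenicillin, 50 μM IPTG and 0.2% rhamnose. Pooled colonies were amplicon-sequenced on an Illumina HiSeq 2500, and fitness is the DiMSum error-weighted combination of wild-type-normalised replicate fold changes, kanamycin versus none.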

Sequence | self-splicing fitness (ln) (30 °C) | self-splicing fitness (ln) (37 °C)
UCUUAGCAAUAUUACGCCUA | -3.12 ± 0.66 | -2.71 ± 0.41
ACCGAGCAAUAUUACGCAGC | -4.02 ± 0.47 | -2.84 ± 0.48
GAUGAGCAAUAUUACGCCUU |  | -1.99 ± 0.61
AUUUAGCAAUAUUACGCCUC | -3.5 ± 1 | 
UGGUAGCAAUAUUACGGGAU | -3.14 ± 0.36 | -2.32 ± 0.28
GCUGAGCAAUAUUACGCGCC |  | -1.24 ± 0.55
GUAUAGCAAUAUUACGAAAA | -1.8 ± 0.56 | -1.18 ± 0.22
UCGGAGCAAUAUUACGACAG | -4.31 ± 0.52 | -2.05 ± 0.51
UACGAGCAAUAUUACGACCC | -3.21 ± 1.1 | 0.0981 ± 1.2
CUGAAGCAAUAUUACGCCCG | -0.0662 ± 0.23 | 0.309 ± 0.24
GGUUAGCAAUAUUACGCCAG |  | -0.778 ± 1
UCUGAGCAAUAUUACGCUGU | -2 ± 0.23 | -1.07 ± 0.19
UUCUAGCAAUAUUACGAAAG | -5.13 ± 0.72 | -2.87 ± 0.32
UUUUAGCAAUAUUACGGGGC | -3.2 ± 0.54 | -2.63 ± 1
UCCCAGCAAUAUUACGUGGG | -3.37 ± 0.1 | -2.85 ± 0.16
CGUCAGCAAUAUUACGCGAC |  | -1.61 ± 0.6
GAGUAGCAAUAUUACGCGGC | -3.47 ± 1 | 
UAAAAGCAAUAUUACGCGAG | -0.897 ± 0.075 | -0.186 ± 0.095
UCGUAGCAAUAUUACGUAUC | -2.71 ± 1.1 | -0.812 ± 0.52
CUGUAGCAAUAUUACGGCCU | -5.15 ± 0.71 | 
GCAGAGCAAUAUUACGCAAU | -4.13 ± 0.61 | 
GACGAGCAAUAUUACGGGGU | -4.2 ± 0.51 | 
UUAGAGCAAUAUUACGCUCG |  | -0.26 ± 0.54
UGAUAGCAAUAUUACGAAUC | -2.44 ± 0.63 | -2.88 ± 0.75
UUCGAGCAAUAUUACGCGCU | -0.864 ± 0.76 | -2.3 ± 0.78

Random excerpt: five entries already listed
Sequence | self-splicing fitness (ln) (30 °C) | self-splicing fitness (ln) (37 °C)
UUAGAGCAAUAUUACGCUCG |  | -0.26 ± 0.54
UAAAAGCAAUAUUACGCGAG | -0.897 ± 0.075 | -0.186 ± 0.095
UUCUAGCAAUAUUACGAAAG | -5.13 ± 0.72 | -2.87 ± 0.32
GAGUAGCAAUAUUACGCGGC | -3.47 ± 1 | 
ACCGAGCAAUAUUACGCAGC | -4.02 ± 0.47 | -2.84 ± 0.48

Continued:

Sequence | self-splicing fitness (ln) (30 °C) | self-splicing fitness (ln) (37 °C)
GACGAGCAAUAUUACGACGG |  | -1.93 ± 0.81
CUUUAGCAAUAUUACGCAUC | -4.41 ± 0.59 | 
GCAUAGCAAUAUUACGCCUU | -4.54 ± 0.51 | 
AGGUAGCAAUAUUACGCACU | -1.32 ± 0.017 | -0.862 ± 0.035
GUGGAGCAAUAUUACGCAAG | -4.21 ± 1 | 
AAAUAGCAAUAUUACGCGGC | -4 ± 0.59 | 
GCGUAGCAAUAUUACGUAGC | -3.34 ± 1.1 | 
GUAUAGCAAUAUUACGAGUC | -3.65 ± 0.38 | -0.711 ± 0.19
CUCGAGCAAUAUUACGAUCA |  | -2.53 ± 0.76
CUUAAGCAAUAUUACGUUGU | -3.89 ± 0.2 | -1.64 ± 0.15
CAUUAGCAAUAUUACGUCCC |  | -1.85 ± 0.66
AUGCAGCAAUAUUACGCAUC | -3.05 ± 0.57 | 
UCGGAGCAAUAUUACGGUGC | -5.09 ± 1 | -2.74 ± 0.61
UGAGAGCAAUAUUACGCCGA |  | -0.778 ± 1.4
GAACAGCAAUAUUACGAUUG | -1.62 ± 0.082 | -1.26 ± 0.11
UGUUAGCAAUAUUACGAAGC | -2.15 ± 0.72 | 
AGCUAGCAAUAUUACGUCAC | -4.86 ± 0.51 | 
GAGUAGCAAUAUUACGAAAA |  | -2.65 ± 0.62
CCAGAGCAAUAUUACGCACC | -4.59 ± 0.59 | 
CGCAAGCAAUAUUACGUGUC | -2.39 ± 0.12 | -2.68 ± 0.16
CCUAAGCAAUAUUACGAGUC |  | -2.97 ± 0.74
UGGGAGCAAUAUUACGGCAG | -3.28 ± 0.21 | -1.34 ± 0.17
CGAGAGCAAUAUUACGUCUA |  | -1.99 ± 0.66
CAAGAGCAAUAUUACGACGU | -2.88 ± 0.23 | -2.57 ± 0.54
GUUGAGCAAUAUUACGGCAG | -3.54 ± 0.54 | -2.75 ± 0.62

Sequence | self-splicing fitness (ln) (30 °C) | self-splicing fitness (ln) (37 °C)
CAUGAGCAAUAUUACGUCAA | -4.04 ± 0.33 | -2.64 ± 0.33
GGGAAGCAAUAUUACGGACC | -3.81 ± 0.4 | -2.35 ± 0.46
UCAUAGCAAUAUUACGUAAU | -3.87 ± 0.48 | -2.61 ± 0.28
UGGGAGCAAUAUUACGUUCC |  | -2.72 ± 1.1
GACGAGCAAUAUUACGUGUC | -4.29 ± 0.59 | 
GUCAAGCAAUAUUACGUCGG | -4.6 ± 0.51 | 
GGGCAGCAAUAUUACGGGGG |  | -2.9 ± 0.61
GCUUAGCAAUAUUACGCAGC | -2.77 ± 0.76 | -2.39 ± 1.1
GUUUAGCAAUAUUACGACGC | 0.0175 ± 0.18 | -0.0772 ± 0.24
GACGAGCAAUAUUACGCCUG | -4.19 ± 1 | 
GGAUAGCAAUAUUACGACAA | -0.923 ± 0.12 | -0.865 ± 0.14
CUUCAGCAAUAUUACGAAUC | -1.04 ± 0.2 | -1.06 ± 0.19
UUGAAGCAAUAUUACGACAG | 0.483 ± 0.091 | 0.232 ± 0.11
AUGUAGCAAUAUUACGUGGU | -4.5 ± 0.58 | 
AUUAAGCAAUAUUACGGGCC | -0.135 ± 0.87 | -0.681 ± 1.4
AUAUAGCAAUAUUACGCCGC |  | -1.62 ± 1.1
CUGUAGCAAUAUUACGCCAU |  | -0.681 ± 1.4
UAUGAGCAAUAUUACGGGCU | -3.62 ± 0.53 | 
CCGUAGCAAUAUUACGUGAC |  | -2.37 ± 0.75
GUUGAGCAAUAUUACGCAAC |  | -1.03 ± 0.93
UCAUAGCAAUAUUACGCGUC |  | -2.69 ± 0.62
CCGGAGCAAUAUUACGGUCA |  | -3.18 ± 0.52
ACGGAGCAAUAUUACGGGCA |  | -2.02 ± 0.5
GUUUAGCAAUAUUACGCAAA | -3.1 ± 0.63 | -2.76 ± 0.61
UUACAGCAAUAUUACGCUCU | -1.01 ± 0.074 | -0.47 ± 0.087

— the supplement of paper PMC7877785
